Results are given in words; binding and its absence hold for the method and conditions named. Binding seen in cells or lysates may run through a third protein. Some results given as binding are weak or reduced against the parent protein; the word gives no strength. Sequences can lack the tags named with a protein.

Chains of the proteins cited; added tags and fusions are not shown.
UniProt Q9H792: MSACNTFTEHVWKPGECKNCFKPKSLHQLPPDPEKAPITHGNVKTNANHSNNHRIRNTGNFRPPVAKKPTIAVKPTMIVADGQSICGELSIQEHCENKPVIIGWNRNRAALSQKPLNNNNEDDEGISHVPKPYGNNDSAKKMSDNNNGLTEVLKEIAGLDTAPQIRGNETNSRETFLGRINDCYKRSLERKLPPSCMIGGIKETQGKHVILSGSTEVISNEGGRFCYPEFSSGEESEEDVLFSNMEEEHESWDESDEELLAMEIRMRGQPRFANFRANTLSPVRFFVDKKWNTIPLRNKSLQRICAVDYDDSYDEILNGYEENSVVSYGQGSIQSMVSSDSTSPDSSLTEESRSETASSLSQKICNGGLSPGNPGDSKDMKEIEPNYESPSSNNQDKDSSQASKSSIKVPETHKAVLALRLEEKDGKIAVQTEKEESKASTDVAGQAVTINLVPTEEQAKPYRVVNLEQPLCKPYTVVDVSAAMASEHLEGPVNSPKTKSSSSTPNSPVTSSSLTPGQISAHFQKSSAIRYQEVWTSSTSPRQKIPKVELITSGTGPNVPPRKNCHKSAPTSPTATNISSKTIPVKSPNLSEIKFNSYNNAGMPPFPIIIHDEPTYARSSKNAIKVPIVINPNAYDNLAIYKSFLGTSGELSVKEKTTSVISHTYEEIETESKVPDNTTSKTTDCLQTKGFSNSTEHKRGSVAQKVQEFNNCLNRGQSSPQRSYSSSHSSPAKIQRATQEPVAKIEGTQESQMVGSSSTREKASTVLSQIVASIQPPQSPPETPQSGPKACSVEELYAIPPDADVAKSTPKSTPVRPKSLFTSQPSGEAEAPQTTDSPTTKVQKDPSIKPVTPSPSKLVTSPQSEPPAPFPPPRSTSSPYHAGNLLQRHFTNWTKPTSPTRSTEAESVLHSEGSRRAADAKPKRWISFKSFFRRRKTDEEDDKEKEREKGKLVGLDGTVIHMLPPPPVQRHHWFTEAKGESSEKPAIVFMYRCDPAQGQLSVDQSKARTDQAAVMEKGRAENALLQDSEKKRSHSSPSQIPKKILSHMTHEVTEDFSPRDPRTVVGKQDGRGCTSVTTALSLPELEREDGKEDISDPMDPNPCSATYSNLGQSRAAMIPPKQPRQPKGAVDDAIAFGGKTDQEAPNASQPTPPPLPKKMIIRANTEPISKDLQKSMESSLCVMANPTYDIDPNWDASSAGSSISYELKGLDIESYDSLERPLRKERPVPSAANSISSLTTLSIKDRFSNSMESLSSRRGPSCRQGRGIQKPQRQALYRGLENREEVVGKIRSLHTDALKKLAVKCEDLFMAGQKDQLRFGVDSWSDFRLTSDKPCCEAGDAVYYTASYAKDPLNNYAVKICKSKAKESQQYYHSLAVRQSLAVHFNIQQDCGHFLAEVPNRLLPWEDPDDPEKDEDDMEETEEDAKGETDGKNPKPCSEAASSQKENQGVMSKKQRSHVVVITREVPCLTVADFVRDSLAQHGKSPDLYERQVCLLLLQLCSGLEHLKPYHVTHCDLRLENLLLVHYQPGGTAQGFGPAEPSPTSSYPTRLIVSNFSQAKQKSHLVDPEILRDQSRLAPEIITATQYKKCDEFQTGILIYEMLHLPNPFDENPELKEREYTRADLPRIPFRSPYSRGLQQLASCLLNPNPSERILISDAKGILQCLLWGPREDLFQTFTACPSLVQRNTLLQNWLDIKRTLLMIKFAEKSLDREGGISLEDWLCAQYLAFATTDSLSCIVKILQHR

The experiment deals with T1, HA-tagged FL SgK223 Y1282A (MCF-10A SgK223 KO) (UniProt Q86YV5).
T1 sequence: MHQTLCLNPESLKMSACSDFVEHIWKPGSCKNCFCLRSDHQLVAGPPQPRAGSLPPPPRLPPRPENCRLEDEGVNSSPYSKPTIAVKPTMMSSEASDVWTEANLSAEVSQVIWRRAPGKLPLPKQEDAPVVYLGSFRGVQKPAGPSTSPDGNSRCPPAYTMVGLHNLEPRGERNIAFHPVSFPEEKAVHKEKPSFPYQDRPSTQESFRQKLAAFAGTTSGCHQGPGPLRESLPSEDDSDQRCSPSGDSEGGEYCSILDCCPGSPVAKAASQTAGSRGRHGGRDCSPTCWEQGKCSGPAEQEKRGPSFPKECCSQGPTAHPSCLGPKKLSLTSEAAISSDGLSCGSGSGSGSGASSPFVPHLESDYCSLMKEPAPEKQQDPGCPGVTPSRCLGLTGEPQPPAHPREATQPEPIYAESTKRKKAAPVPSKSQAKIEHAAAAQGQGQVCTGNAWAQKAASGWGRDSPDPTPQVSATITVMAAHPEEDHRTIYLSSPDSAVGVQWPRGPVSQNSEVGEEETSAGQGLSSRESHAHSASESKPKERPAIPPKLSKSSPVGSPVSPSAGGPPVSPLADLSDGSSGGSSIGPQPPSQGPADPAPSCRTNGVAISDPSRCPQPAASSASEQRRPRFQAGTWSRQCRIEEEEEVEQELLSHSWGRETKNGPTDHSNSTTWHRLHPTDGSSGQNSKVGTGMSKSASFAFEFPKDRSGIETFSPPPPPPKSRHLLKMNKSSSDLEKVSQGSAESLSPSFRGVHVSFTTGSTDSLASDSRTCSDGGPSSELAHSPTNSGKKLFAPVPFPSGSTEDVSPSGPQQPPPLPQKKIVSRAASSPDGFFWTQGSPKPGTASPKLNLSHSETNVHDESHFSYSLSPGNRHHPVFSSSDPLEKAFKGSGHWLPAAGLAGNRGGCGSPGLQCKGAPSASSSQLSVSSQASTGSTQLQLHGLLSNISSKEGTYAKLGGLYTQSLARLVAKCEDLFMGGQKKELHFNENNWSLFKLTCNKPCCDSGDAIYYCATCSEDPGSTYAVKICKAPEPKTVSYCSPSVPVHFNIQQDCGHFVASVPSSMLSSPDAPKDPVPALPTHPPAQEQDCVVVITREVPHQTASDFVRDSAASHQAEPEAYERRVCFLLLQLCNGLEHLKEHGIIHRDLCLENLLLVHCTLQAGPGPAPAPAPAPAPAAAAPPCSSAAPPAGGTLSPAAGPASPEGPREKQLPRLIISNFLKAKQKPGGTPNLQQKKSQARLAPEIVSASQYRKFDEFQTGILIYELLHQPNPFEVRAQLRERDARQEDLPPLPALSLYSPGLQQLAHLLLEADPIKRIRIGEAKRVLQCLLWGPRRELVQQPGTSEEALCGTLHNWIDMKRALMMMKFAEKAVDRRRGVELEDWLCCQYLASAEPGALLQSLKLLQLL
The experiment can be described thus: co-IP; HA-tagged FL SgK223 WT or mutants expressed in MCF-10A SgK223 KO cells; immunoprecipitation with anti-HA, blot with anti-SgK269 for the endogenous protein.

Regarding “endogenous FL SgK269-WT (from UniProt Q9H792 1-1746)”, the binding result is recorded as “binds”.

The record behind these values is article PMC5660093, “Structure of SgK223 pseudokinase reveals novel mechanisms of homotypic and heterotypic association” (Nature Communications, 2017).
